# Measurements taken from the supplement of paper PMC7125110.
# ± gives the standard error. Many of these values have a large error.
# B1: glmS ribozyme (parent)
# chain: AUAAAAGCGCCAGAACUACAGAAAUGUAGUUGACGAGGAGGAGGUUUAUCGAAUUUUCGGCGGAUGCCUCCAAA
# Variants of: B1
# Test: KM; higher = weaker cofactor use; RNA array
# Details: with glucosamine-6-phosphate
# In short: (§1)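 Glucosamine-6-phosphate (40 μM to 10 mM) in HEPES/KCl/Mg(OAc)2 buffer was flowed over sequenced MiSeq chips, and tiles were imaged over ~14 h. Barcoded ribozyme variants there had been transcribed in situ by E. coli RNA polymerase and were tracked through a hybridised Cy3 probe at 37 °C. One- or two-exponential decay fits to per-tile medians, normalised to baseline and to non-cleaving reference variants, gave kobs. kcat and KM came from weighted Michaelis–Menten fits across concentrations.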
row,Variant,KM [µM]
1,U55C U69C,13600 ± 6700
2,A53U U56A,1820 ± 450
3,U65A C71U,732 ± 450
4,C61G G62C A64G U65A G66U C67G,84.6 ± 56
5,U54C C68G,446 ± 250
6,C70A C71G,80.6 ± 53
7,U57C G66U,734 ± 530
8,U55G G62U,292 ± 160
9,C70G C71U,401 ± 170
10,U55C G66U,1220 ± 830
11,U54A C71U,79.9 ± 58
12,C58G C71U,402 ± 99
13,A53U U69A,64.5 ± 38
14,U54A U56A,2140 ± 380
15,U56G G66A,2460 ± 1300
16,U56C U69C,1140 ± 1100

# Part of the list above in a different format.
row	Variant	KM [µM]
1	U55C U69C	13600 ± 6700
5	U54C C68G	446 ± 250
9	C70G C71U	401 ± 170
10	U55C G66U	1220 ± 830
12	C58G C71U	402 ± 99

# Variants of: B1
# Test: self-cleavage kobs at 160 uM GlcN6P; higher = faster cleavage; RNA array
# Details: with glucosamine-6-phosphate
# In short: as §1
row,Variant,self-cleavage kobs at 160 uM GlcN6P [s⁻¹]
1,U55C U69C,2.48e-05 ± 1.8e-05
2,U54C C68G,2.68e-05 ± 1.9e-05
3,G35C U46C C67A,6.44e-05 ± 3.8e-05

# Variants of: B1
# Test: self-cleavage kobs at 640 uM GlcN6P; higher = faster cleavage; RNA array
# Details: with glucosamine-6-phosphate
# In short: as §1
row,Variant,self-cleavage kobs at 640 uM GlcN6P [s⁻¹]
1,G13A U45G,1.51e-05 ± 9.7e-06
2,U30C U47A C70A,6.18e-05 ± 3.1e-05
3,A12G U30G,1.79e-05 ± 9.4e-06
4,U30G A64G,0.00139 ± 0.0008
5,C34U G63U A64G,3.67e-05 ± 3.4e-05
6,C16A U30C U57G U65C C70U,3.33e-05 ± 1.7e-05
7,A6U C68G,1.65e-05 ± 1.5e-05
8,G29C G32U,4.74e-05 ± 3.9e-05
9,A12U C67U C70G,2.84e-05 ± 2.1e-05
10,C16G G41U,1.89e-05 ± 1.5e-05
11,A15U A42G U69G,4.13e-05 ± 2.8e-05
12,G13U U65A,3.06e-05 ± 2.7e-05
13,C16G U57A C68U,3.9e-05 ± 2.4e-05
14,A36G U56G G63A C70G,0.000171 ± 0.0001
15,C16G A52G U55G,3.85e-05 ± 2.6e-05
16,G13A U57A,3.64e-05 ± 1.9e-05
17,C11U A15G G43A C67G,1.54e-05 ± 1.5e-05
18,A14C U54A C67A C68A,3.25e-05 ± 2.3e-05
19,G13C C16A A42G,3.59e-05 ± 2.4e-05
20,A14C G29C A64G,4.77e-05 ± 2.4e-05

row,Variant,self-cleavage kobs at 640 uM GlcN6P [s⁻¹]
1,C10U G63U C67G,2.66e-05 ± 1.9e-05
2,A15U C16A C70G,5.35e-05 ± 2.8e-05
3,A6G G7A U57A G66A C68G,0.000595 ± 0.0004
4,C34G C71G,2.49e-05 ± 1.6e-05
5,A12G A15C U31G C68G,0.000134 ± 8.6e-05
6,G9C C50G U55A U57G C70U,3.14e-05 ± 2.3e-05
7,A15C C16A C70U C71U,3.22e-05 ± 1.9e-05
8,A14C A53G C58A C70G,4.92e-05 ± 2.6e-05
9,A14C A36G C50G,3e-05 ± 2.6e-05
10,C11U U30G U45G,2.17e-05 ± 1.5e-05
11,G35C U46C C67A,2.55e-05 ± 2.3e-05
12,A14U G32A C58U,2.8e-05 ± 1.8e-05
13,C10A A64G G66U C68G,5.33e-05 ± 2.9e-05
14,C11G A64G U69C C71U,3.3e-05 ± 2.9e-05
15,A14U A15U C16U C67G,6.39e-05 ± 4.5e-05
16,C10U C16U G32U,4.25e-05 ± 3.4e-05
17,A12C G37A A52G,1.79e-05 ± 1.3e-05
18,C11G C61U U69G,3e-05 ± 2.5e-05
19,C10G C11A U30C A36C G37U C70A C71U,0.00106 ± 0.00055

# Variants of: B1
# Test: self-cleavage kobs at 40 uM GlcN6P; higher = faster cleavage; RNA array
# Details: with glucosamine-6-phosphate
# In short: as §1
row,Variant,self-cleavage kobs at 40 uM GlcN6P [s⁻¹]
1,G13A A15U U47A G59C C61G C68G C70U,3.99e-05 ± 2.3e-05
2,C58A C68G,1.54e-05 ± 1.3e-05
3,A6U,< 1e-05
4,G40C U55A,4.25e-05 ± 2.4e-05
5,U31C A52G,1.81e-05 ± 1.5e-05
6,C16U G35A C68G,5.29e-05 ± 2.8e-05
7,G9U A39U C61A,3.53e-05 ± 3.2e-05
8,C10A A14G U69G,0.000118 ± 6.2e-05
9,C70G C71U,1.57e-05 ± 1.2e-05
10,U65G G66C,2.12e-05 ± 1.8e-05
11,C16G G32A,1.48e-05 ± 9.7e-06
12,G44A U65G C67U,2.02e-05 ± 1.5e-05
13,G29U G38U U69G,3.09e-05 ± 1.6e-05
14,C58G U69C,2.58e-05 ± 1.5e-05
15,C8G C10U C70G,3.92e-05 ± 2.8e-05
16,C8U C10U C67G,2.72e-05 ± 2e-05
17,A52G C70G,2.04e-05 ± 1.3e-05
18,U45C U56G,1.88e-05 ± 1e-05
19,G41A U46G,3.8e-05 ± 2e-05
20,G13A C50G U56C,3.09e-05 ± 2.3e-05
21,G9C C50G U55A U57G C70U,5.67e-05 ± 2.9e-05
22,C8G G9U C61G C71G,4.03e-05 ± 2.7e-05
23,U47G C50G C68U,2.61e-05 ± 1.8e-05
24,G32A C50U C70G,2.68e-05 ± 2.4e-05
25,C11A C50U C61U C67G,3.68e-05 ± 2.3e-05
26,A14G U31G C67U,2.16e-05 ± 1.4e-05

# Variants of: B1
# Test: self-cleavage kobs at 10000 uM GlcN6P; higher = faster cleavage; RNA array
# Details: with glucosamine-6-phosphate
# In short: as §1
row,Variant,self-cleavage kobs at 10000 uM GlcN6P [s⁻¹]
1,C58A C68G,1.53e-05 ± 1e-05
2,A12U C67U C70G,2.58e-05 ± 1.6e-05
3,C16G U57A C68U,3.02e-05 ± 1.9e-05
4,C58G U69C,2.03e-05 ± 1.5e-05
5,C8G C10U C70G,3.05e-05 ± 2.1e-05
6,C8G G9U C61G C71G,3.51e-05 ± 2.5e-05
7,C11A C50U C61U C67G,2.59e-05 ± 1.5e-05

# Variants of: B1
# Test: self-cleavage kobs at 2500 uM GlcN6P; higher = faster cleavage; RNA array
# Details: with glucosamine-6-phosphate
# In short: as §1
row,Variant,self-cleavage kobs at 2500 uM GlcN6P [s⁻¹]
1,U30G A64G,0.00281 ± 0.0015
2,C16A U30C U57G U65C C70U,3.99e-05 ± 3.3e-05
3,A36G U56G G63A C70G,3.62e-05 ± 3.2e-05
4,A14C A53G C58A C70G,4.5e-05 ± 3e-05
5,C10A A64G G66U C68G,4.82e-05 ± 2.9e-05
6,C11G A64G U69C C71U,3.05e-05 ± 2.2e-05
7,U56C U69C,3.12e-05 ± 1.7e-05

# Another view of part of the listing above.
row	Variant	self-cleavage kobs at 2500 uM GlcN6P [s⁻¹]
2	C16A U30C U57G U65C C70U	3.99e-05 ± 3.3e-05
3	A36G U56G G63A C70G	3.62e-05 ± 3.2e-05
4	A14C A53G C58A C70G	4.5e-05 ± 3e-05
